# Microarray screen: hit calls

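Compounds were printed on reactive glass slides in duplicate spots, a dye-labelled oligonucleotide was laid over them, and the fluorescence left after washing was read. For the PreQ1, TPP and SAM-II riboswitches the laboratory earlier reported (doi:10.1038/s41467-019-09493-3) 1 µM RNA, 2 h, and a rule that included a mean Z-score above 3 (spot signal-to-noise against the whole library), a score well above that on a control array, and duplicate spots agreeing (coefficient of variation under 100). The data file gives only the calls; its cut-offs may differ, and compounds hitting several targets are kept. These are primary screening calls, not affinities; a compound without a hit may have attached poorly or may still bind in solution.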 A compound is marked hit if it was called a hit and no hit if it was screened but was not. The compounds are a random part of those screened. A dash means that no call is listed here.

Targets, with sequences 5′ to 3′:
T1: TPP riboswitch RNA three-way junction, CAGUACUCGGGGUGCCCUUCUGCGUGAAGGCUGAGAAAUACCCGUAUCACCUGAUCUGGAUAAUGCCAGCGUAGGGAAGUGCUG. About 24,000 compounds screened, about 160 hits.
T2: PreQ1 riboswitch RNA pseudoknot, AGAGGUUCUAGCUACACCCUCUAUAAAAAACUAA. From B. subtilis. About 24,000 compounds screened, about 170 hits.
T3: SAM-II riboswitch RNA pseudoknot, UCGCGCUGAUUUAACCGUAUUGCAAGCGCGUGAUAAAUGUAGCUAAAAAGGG. About 21,000 compounds screened, about 200 hits.

| # | structure | T1 | T2 | T3 |
|---|---|---|---|---|
| 1 | `Oc1ccccc1NCc1nc2ccccc2n1Cc1ccccc1Cl` | no hit | no hit | no hit |
| 2 | `Nc1ccc(S(=O)(=O)NCC2CCCCO2)cc1` (centres undefined) | no hit | no hit | no hit |
| 3 | `COCCCC1(CO)CCCN(CCOc2ccc(F)cc2)C1` (centres undefined) | no hit | no hit | no hit |
| 4 | `N#CC1=C(N)Oc2[nH]nc(-c3ccccn3)c2C1c1ccccc1F` (centres undefined) | no hit | no hit | no hit |
| 5 | `COc1ccc2c(CNCCc3ccco3)c(C(=O)O)n(Cc3ccccc3F)c2c1` | no hit | no hit | - |
| 6 | `CN(C)CCc1c[nH]c2ccc(CS(=O)(=O)N3CCCC3)cc12` | no hit | no hit | no hit |
| 7 | `CCc1cc(N2C[C@H](N)C[C@H]2C(=O)N(CC)CC)nc(N2CCCC2)n1` | no hit | no hit | no hit |
| 8 | `CC1CCC(Nc2c(-c3ccc(Br)cc3)[nH]c3c(C#N)cnn23)CC1` (centres undefined) | no hit | no hit | - |
| 9 | `Cc1ccc2c(c1Br)C1(C(=O)N2)C(C#N)=C(N)OC2=C1C(=O)CC(c1ccco1)C2` (centres undefined) | no hit | no hit | no hit |
| 10 | `COc1cc(N2CCC(N3CCN(C)CC3)CC2)ccc1Nc1ncnc(Nc2ccccc2S(=O)(=O)C(C)C)n1` | no hit | no hit | no hit |
| 11 | `O=C1N(c2ccccc2)c2ccccc2C1(Cc1ccncc1)Cc1ccncc1` | no hit | no hit | no hit |
| 12 | `Cc1cc(N2CCC(NCc3cc(C4CC4)[nH]n3)CC2)nc(N2CCCC2)n1` | no hit | no hit | no hit |
| 13 | `Nc1cccc(-n2cnnc2)c1` | no hit | no hit | no hit |
| 14 | `Nc1cc(OC(=O)c2cccs2)nn1S(=O)(=O)c1ccc(F)cc1` | no hit | no hit | no hit |
| 15 | `CCC(O)Cn1nc(COc2ccc(F)cc2)nc1-c1c[nH]c(=O)[nH]c1=O` (centres undefined) | no hit | no hit | no hit |
| 16 | `Nc1nnc(SCCN2CCCCC2)[nH]1` | no hit | no hit | no hit |
| 17 | `CCNc1nc(N)c(C(C)=O)s1` | no hit | no hit | no hit |
| 18 | `CCC[C@H](N[C@@H](C)C(=O)N1[C@H](C(=O)O)C[C@@H]2CCCC[C@@H]21)C(=O)OCC` | no hit | no hit | no hit |
| 19 | `O=c1ccn([C@@H]2O[C@H](CO)[C@H](O)[C@@H]2F)c(=O)[nH]1` | no hit | no hit | no hit |
| 20 | `CCCn1cc(C(=O)N2CC[C@@H](NC(=O)c3ccccn3)[C@H](O)C2)c(C)n1` | no hit | no hit | no hit |
| 21 | `Cc1cc(CNCC2(O)CCCN(CCCc3ccccc3)C2=O)on1` (centres undefined) | no hit | no hit | no hit |
| 22 | `Cc1ccc(Nc2nc3ccccc3c3nncn23)c(Cl)c1` | no hit | no hit | no hit |
| 23 | `Oc1ccc2ccc3nc[nH]c3c2c1` | no hit | no hit | no hit |
| 24 | `COCCCN[C@H]1CS(=O)(=O)C[C@@H]1S(=O)(=O)c1ccc(F)cc1` | no hit | no hit | - |
| 25 | `CCCCNc1cc(C)nc2cc(-c3ccc(OC)c(OC)c3)nn12` | no hit | no hit | - |
| 26 | `Cl.OC(COCc1ccccc1)CN1CCCC1` (centres undefined) | no hit | no hit | no hit |
| 27 | `COc1ccc(-c2cc(CO)on2)cc1` | no hit | no hit | no hit |
| 28 | `Cc1c(C)n(Cc2cccnc2)c2nc3c(c(N)c12)CCc1ccccc1-3` | no hit | no hit | no hit |
| 29 | `CCn1ccc(C(=O)N2CCOCC(CO)C2)cc1=O` (centres undefined) | no hit | no hit | no hit |
| 30 | `Cc1nc(N2CCOCC(CO)C2)c2c(C)noc2n1` (centres undefined) | no hit | no hit | no hit |
| 31 | `Clc1ccc2nc(NCc3ccccc3)c3nncn3c2c1` | no hit | no hit | - |
| 32 | `COC(=O)c1sc2nc(-c3ccccc3)cc(C(F)(F)F)c2c1N` | no hit | no hit | no hit |
| 33 | `C=CCC1(C(=O)O)CCCN(c2cc(N)nc(N3CCOCC3)n2)C1` (centres undefined) | no hit | no hit | no hit |
| 34 | `Cc1ccc(Nc2c(-c3ccco3)nc3ccc(C)cn23)cc1` | no hit | no hit | no hit |
| 35 | `C=C(C)C1CCC2(C)CCC3(C)C(CCC4C5(C)CCC(O)C(C)(C)C5CCC43C)C12` (centres undefined) | no hit | no hit | no hit |
| 36 | `CC(CN1CCc2ccccc2C1)Nc1nccc(N2CCC(O)CC2)n1` (centres undefined) | no hit | no hit | no hit |
| 37 | `COc1ccc(Br)cc1Cn1nnc(C(=O)Nc2ccc(F)cc2)c1N` | no hit | no hit | no hit |
| 38 | `CCCc1nc(-c2cc3cccc(C)c3nc2NCc2cccnc2)no1` | no hit | no hit | - |
| 39 | `Cc1cc(NCC(O)c2ccccc2)n2nc(C)cc2n1` (centres undefined) | no hit | no hit | no hit |
| 40 | `COCCNc1oc(-c2ccc(S(=O)(=O)N3CCCC3)cc2)nc1C#N` | no hit | no hit | - |
| 41 | `Cc1ccc(OCC(O)Cn2c(C3CC(=O)N(c4ccccc4C)C3)nc3ccccc32)cc1` (centres undefined) | no hit | no hit | - |
| 42 | `Nc1nnc(CC(=O)N2CCC(Cc3noc(C4CC4)n3)CC2)s1` | no hit | no hit | no hit |
| 43 | `CC1=C(C(=O)OC(C)(C)C)C(c2ccc(Cl)cc2Cl)C(C#N)=C(N)O1` (centres undefined) | no hit | no hit | no hit |
| 44 | `O=C1C(CO)C(CO)C(CO)C1CO` (centres undefined) | no hit | no hit | no hit |
| 45 | `O=C(O)C(=O)O.c1ccc2c(OCCOCCNCCN3CCOCC3)cccc2c1` | no hit | no hit | no hit |
| 46 | `C=CCC1(NCCc2ccccc2)CCCCC1` | no hit | no hit | no hit |
| 47 | `OC(COc1ccccc1Cl)Cn1c(C2CC2)nc2ccccc21` (centres undefined) | no hit | no hit | - |
| 48 | `CC(C)c1cc(C(=O)N2CCNCC2C(=O)N2CCCC2)no1` (centres undefined) | no hit | no hit | no hit |
| 49 | `CC(O)c1ccc(-c2cccc(CN3CCOCC3)c2)cc1` (centres undefined) | no hit | no hit | no hit |
| 50 | `c1ccc(-c2nnc3oc(-c4cccs4)nn23)cc1` | no hit | no hit | no hit |
| 51 | `OC1(CNCc2csc3ccc(Cl)cc23)CCCNC1` (centres undefined) | no hit | no hit | no hit |
| 52 | `O=C(C=CC#Cc1cccc(NS(=O)(=O)c2ccccc2)c1)NO` | no hit | no hit | no hit |
| 53 | `CCCNc1cc(C)nc2nc(-c3ccc(C)cc3)nn12` | no hit | no hit | - |

For reference, 3 entries once more:

structure,T1,T2,T3
COc1ccc(-c2cc(CO)on2)cc1,no hit,no hit,no hit
Cc1c(C)n(Cc2cccnc2)c2nc3c(c(N)c12)CCc1ccccc1-3,no hit,no hit,no hit
O=C1N(c2ccccc2)c2ccccc2C1(Cc1ccncc1)Cc1ccncc1,no hit,no hit,no hit

Data from the ROBIN nucleic acid binder screens, doi:10.1002/anie.202211358.